The source of these data is patent US20230173113A1 (Technische Universität München, priority 2020, published 2023).

The series is described as follows: general procedure: Fmoc solid-phase peptide synthesis; CTC-resin (0.9 mmol/g). Particulars: late stage modification step.

Consider Cyclo(YRGDLAYp(NMe)K(pentynoic acid)), for which the step yield came out at 57%. Regarding Cyclo(YRGDLAYp(NMe)K), the step yield (In relation to the crude product) worked out at 10.2%.
